US9890119B2, “Indole and azaindole derivative having AMPK-activating activity” (SHIONOGI & CO., LTD., priority 2013, dated 2018)
For at least one compound, name, drawing or mass did not settle the structure.

Sequences of proteins named here, by UniProt entry; tags and fusion partners are left off. A change or cut given only in a name is not applied to a line headed by its entry.
UniProt O43741: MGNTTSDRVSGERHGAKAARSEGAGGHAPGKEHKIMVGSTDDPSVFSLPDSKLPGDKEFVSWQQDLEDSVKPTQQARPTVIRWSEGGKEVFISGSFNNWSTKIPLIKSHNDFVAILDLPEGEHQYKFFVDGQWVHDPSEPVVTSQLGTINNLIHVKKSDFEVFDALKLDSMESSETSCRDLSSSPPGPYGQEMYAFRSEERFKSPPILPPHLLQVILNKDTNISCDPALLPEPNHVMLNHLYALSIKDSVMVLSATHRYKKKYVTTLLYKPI
UniProt P54646: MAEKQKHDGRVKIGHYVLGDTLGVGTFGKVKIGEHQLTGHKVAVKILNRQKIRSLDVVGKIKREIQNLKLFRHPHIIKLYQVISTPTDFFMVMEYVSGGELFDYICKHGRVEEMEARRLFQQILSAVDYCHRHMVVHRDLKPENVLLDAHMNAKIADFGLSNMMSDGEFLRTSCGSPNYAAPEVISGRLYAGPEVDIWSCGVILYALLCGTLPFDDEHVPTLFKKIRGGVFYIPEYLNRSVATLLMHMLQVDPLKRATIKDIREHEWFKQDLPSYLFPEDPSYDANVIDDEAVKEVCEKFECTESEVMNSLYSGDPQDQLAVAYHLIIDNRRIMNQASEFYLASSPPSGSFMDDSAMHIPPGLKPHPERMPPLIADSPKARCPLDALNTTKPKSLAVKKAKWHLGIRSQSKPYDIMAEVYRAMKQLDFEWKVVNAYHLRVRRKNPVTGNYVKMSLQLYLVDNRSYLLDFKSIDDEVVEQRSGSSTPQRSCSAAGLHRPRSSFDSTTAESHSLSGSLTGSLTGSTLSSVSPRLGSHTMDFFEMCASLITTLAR

Biological target: T1, Human AMPK α2β2γ1 (Homo sapiens, UniProt O43741+P54646)
T1 construct: The full length cDNAs of human AMPK β2 (NM_005399.3) and human AMPK α2 (NM_006252.3) were inserted; the full length cDNA of human AMPK γ1 (NM_002733.3) had been inserted into pET28b(+); 6xHis (N); made in house; host or cells: Escherichia coli BL21 CodonPlus (DE3)-RIL
Assay: Test Example 2: evaluation of activators of AMP-activated protein kinase (mobility-shift assay, FL-Peptide 7)
Format: biochemical
Conditions: human AMPK α2β2γ1 phosphorylated with CaMKK2; 25° C., 2 hours; 1% DMSO
Procedure: The full length cDNAs of human AMPK β2 (NM_005399.3) and human AMPK α2 (NM_006252.3) were inserted into the MCS1 and MCS2 of the pETDuet-1 vector to prepare a human AMPK β2 and human AMPK α2 (6× His tag at the 5′ terminus) expressing plasmid. The plasmid was contransfected with an expression plasmid, in which the full length cDNA of human AMPK γ1 (NM_002733.3) had been inserted into pET28b(+), into BL21 CodonPlus (DE3)-RIL to obtain an expression strain. The expression strain was cultured in TB medium, followed by induction with 0.5 mM IPTG, and cultured at 25° C. for 3 hours and then harvested. After ultrasonication, supernatant was collected and applied to Histrap FF column (GE) and RESOUECE Q column (GE) to prepare 12.5 mg of purified sample containing three types of subunit from 1.8 L of broth.
An expression vector, in which the full length cDNA of human CAMKK β (NM_172226.1) had been inserted into pGEX-6P-3, was transfected into BL21 Star (DE3). […]
To detect phosphorylated fluorescent substrates, the reaction liquid was applied to a measuring device, LabChip EZ Reader II manufactured by Caliper Life Science, Inc., for detecting fluorescence by using differences in mobility due to differences in charge. […]
A conversion rate was calculated from the peak heights of the resulting substrate and product. […]

With CC(C)(CO)C(=O)N1CCC(Oc2cc3nc(-c4ccc(C5=CCC(C(=O)O)CC5)cc4)c(Cl)cc3[nH]2)CC1 (stereo not shown) [Compound I-3-38] the “EC150 (compound concentration showing 150% relative to the control (100%))” value was 3.9 nM.
